Series [1] addresses AtTERT aa320-580 (N-terminally truncated TRBD) (Arabidopsis thaliana) (UniProt Q9SPU7). As to the kind of experiment: EMSA. The conditions noted are these: 40 nM RNA, 0-400 nM protein, no mobility change; EMSA: 50 mM Tris-HCl (pH not stated), 250 mM NaCl, 10 mM potassium acetate, 3% glycerol added before loading; 20 min at room temperature; recombinant protein; residues 320-580; label: none (Sybr Green II stain); probe letters rebuilt from the primers and the genome; part of a longer molecule. Background: Mobility shift assays separate free from complexed probe on a gel.

By UniProt entry, the sequences of proteins in these tests, tags left out. Residues count along the entry.
UniProt Q9SPU7, 320-580: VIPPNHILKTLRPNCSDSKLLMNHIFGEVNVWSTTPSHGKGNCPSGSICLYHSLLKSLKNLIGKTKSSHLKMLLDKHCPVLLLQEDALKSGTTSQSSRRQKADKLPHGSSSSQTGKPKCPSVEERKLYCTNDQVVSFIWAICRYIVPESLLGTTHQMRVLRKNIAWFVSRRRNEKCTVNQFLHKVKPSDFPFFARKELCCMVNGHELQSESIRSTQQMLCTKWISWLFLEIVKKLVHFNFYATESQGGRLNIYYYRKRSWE
UniProt Q9SPU7, 229-580: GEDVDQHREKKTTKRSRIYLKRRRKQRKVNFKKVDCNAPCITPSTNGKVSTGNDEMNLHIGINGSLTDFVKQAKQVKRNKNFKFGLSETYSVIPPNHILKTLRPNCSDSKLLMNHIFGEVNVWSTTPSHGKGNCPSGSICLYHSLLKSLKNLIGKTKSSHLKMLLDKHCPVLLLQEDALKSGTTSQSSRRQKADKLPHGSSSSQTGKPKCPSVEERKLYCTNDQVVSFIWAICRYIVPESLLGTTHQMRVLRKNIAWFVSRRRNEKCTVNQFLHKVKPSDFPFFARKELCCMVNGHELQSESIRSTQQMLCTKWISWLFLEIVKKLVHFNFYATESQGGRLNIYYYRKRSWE

The target of series [2] is AtTERT aa229-580 (unstructured linker + TRBD) (Arabidopsis thaliana) (UniProt Q9SPU7). The series is described as follows: EMSA. The conditions noted are these: 40 nM RNA, 0-400 nM protein; EMSA: 50 mM Tris-HCl (pH not stated), 250 mM NaCl, 10 mM potassium acetate, 3% glycerol added before loading; 20 min at room temperature; recombinant protein; residues 229-580; label: none (Sybr Green II stain); probe letters rebuilt from the primers and the genome; part of a longer molecule.

These results are taken from article PMC11093817.

For some assays here: Negatives hold for the conditions tested. For some assays here: Construct, isoform or probe ends are uncertain for at least one entry.

Take “AAGGGGUGUGGGAACCUAGGAGAUGAGUCUGCUUAUUGAUUGCUAAACCCUGAACCCUCUCAUGUUAACUAUGGGAAUUAAUUACUGGGGGUCUUAGGCCGGCGUUUCCCCCGAAAAAUAAUGAAAAAACGUCGAUGGCUACAUAAGAGGCUCGUCUCCAAAAAGUAGACCAGGAGGUUGGGUUUGGUUCGUAGGUGGUUCUGUUGAAACUAGAUUAGUGUCUGCGGUUAACCGUUUCCUCGCCUUACCCUCCCACCCCCAAA [AtTR full length (nts1-262)]”: the binding result is “no binding” in series [1] and “binds” in series [2].
